Data from publication PMC13498733.
No constants are given. Whether binding was seen depends on the method and setting. In cells and extracts the contact can be indirect. Here binding means that the protein was enriched with, or labelled near, the bait; the list need not be complete.

Chains of the proteins cited; added tags and fusions are not shown. Lines headed by an entry give the natural chain unless they say otherwise; changes in a name come on top.
UniProt P11260: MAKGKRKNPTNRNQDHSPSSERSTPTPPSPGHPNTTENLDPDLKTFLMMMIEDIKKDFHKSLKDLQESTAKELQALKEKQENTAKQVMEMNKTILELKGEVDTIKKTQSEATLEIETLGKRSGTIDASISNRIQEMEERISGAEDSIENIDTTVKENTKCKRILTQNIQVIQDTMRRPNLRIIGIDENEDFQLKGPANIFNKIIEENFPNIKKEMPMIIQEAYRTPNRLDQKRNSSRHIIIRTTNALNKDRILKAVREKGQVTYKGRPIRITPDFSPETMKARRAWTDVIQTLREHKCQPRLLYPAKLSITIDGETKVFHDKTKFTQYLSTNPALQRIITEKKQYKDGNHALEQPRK

biological target: LINE-1 ORF1p (mouse) (mouse (endogenous in MN9D)) (UniProt P11260); experiment: affinity purification with mass spectrometry; IP of endogenous ORF1p with antibody-coupled Dynabeads from sonicated lysate of differentiated MN9D neurons (day 10), against rabbit IgG, n = 5 IPs; 10 mM Tris HCl pH 8, 150 mM NaCl, overnight 4°C; on-bead digest, LC-MS/MS (DIA), label-free quantification; ratio ≥2, P ≤0.05

Binder | binding
MLF2 (mouse) (protein, UniProt Q99KX1 1-247) MFRFMRDVEPEDPMFLMDPFAIHRQHMSRMLSGGFGYSPFLSITDGNMPATRPASRRMQAGAVSPFGMLGMSGGFMDMFGMMNDMIGNMEHMAAGGNCQTFSSSTVISYSNTGDGAPKVYQETSEMRSAPGGIRETRRTVRDSDSGLEQMSIGHHIRDRAHILQRSRNHRTGDQEERQDYINLDESEAAAFDDEWRRETSRYRQQRPLEFRRHEASVGGGRRAEGPPRLAIQGPEDSPSRQSRRYDW | binds
PRKRA (mouse) (protein, UniProt Q9WTX2 1-313) MSHSRHRAEAPPLQREDSGTFSLGKMITAKPGKTPIQVLHEYGMKTKNIPVYECERSDVQVHVPTFTFRVTVGDITCTGEGTSKKLAKHRAAEAAINILKANASICFAVPDPLMPDPSKQPKNQLNPIGSLQELAIHHGWRLPEYTLSQEGGPAHKREYTTICRLESFMETGKGASKKQAKRNAAEKFLAKFSNISPENHISLTNVVGHSLGCTWHSLRNSPGEKINLLKRSLLSLPNTDYIQLLSEIASEQGFNITYLDIEELSANGQYQCLAELSTSPITVCHGSGISCGNAQSDAAHNALQYLKIIAERK | binds
GPHN (mouse) (protein, UniProt Q8BUV3 1-769) MATEGMILTNHDHQIRVGVLTVSDSCFRNLAEDRSGINLKDLVQDPSLLGGTISAYKIVPDEIEEIKETLIDWCDEKELNLILTTGGTGFAPRDVTPEATKEVIEREAPGMALAMLMGSLNVTPLGMLSRPVCGIRGKTLIINLPGSKKGSQECFQFILPALPHAIDLLRDAIVKVKEVHDELEDLPSPPPPLSPPPTTSPHKQTEDKGVQCEEEEEEKKDSGVASTEDSSSSHITAAALAAKIPDSIISRGVQVLPRDTASLSTTPSESPRAQATSRLSTASCPTPKQIRRPDESKGVASRVGSLKARLPSCSSTYSVSEVQSRCSSKENILRASHSAVDITKVARRHRMSPFPLTSMDKAFITVLEMTPVLGTEIINYRDGMGRVLAQDVYAKDNLPPFPASVKDGYAVRAADGPGDRFIIGESQAGEQPTQTVMPGQVMRVTTGAPIPCGADAVVQVEDTELIRESDDGTEELEVRILVQARPGQDIRPIGHDIKRGECVLAKGTHMGPSEIGLLATVGVTEVEVNKFPVVAVMSTGNELLNPEDDLLPGKIRDSNRSTLLATIQEHGYPTINLGIVGDNPDDLLNALNEGISRADVIITSGGVSMGEKDYLKQVLDIDLHAQIHFGRVFMKPGLPTTFATLDIDGVRKIIFALPGNPVSAVVTCNLFVVPALRKMQGILDPRPTIIKARLSCDVKLDPRPEYHRCILTWHHQEPLPWAQSTGNQMSSRLMSMRSANGLLMLPPKTEQYVELHKGEVVDVMVIGRL | binds

The remaining lines, values ahead:

binding | Binder
binds | UBAP2L (mouse) (protein, UniProt Q80X50 1-1107) MMTSVGTNRARGNWEQPQNQNQTQHKQRPQATAEQIRLAQMISDHNDADFEEKVKQLIDITGKNQDECVIALHDCNGDVNRAINVLLEGNPDTHSWEMVGKKKGVSGQKDGGQTESNEEGKENRDRDRDYSRRRGGPPRRGRGASRGREFRGQENGLDGTKSGGPSGRGTDRGRRGRGRGRGSSGRRGGRFSAQGMGTFNPADYAEPANTDDNYGNSSGNTWNNTGHFEPDDGTRLDFIGVEGSNYPRKFETAPGAWRTATEEWGTEDWNEDLSETKIFTASNVSSVPLPAENVTITAGQRIDLAVLLGKTPSSMENDSSNLDPSQAPSLAQPLVFSNSKQNAISQPASGSTFSHHSMVSMLGKGFGDVGEAKGGSTTGSQFLEQFKTAQALAQLAAQHSQSGSTTTSSWDMGSTTQSPSLVQYDLKSANDSTVHSPFTKRQAFTPSSTMMEVFLQEKPPAVATSTAAPPPPSSPLPSKSTSAPQMSPGSSDNQSSSPQPAQQKLKQQKKKTSLTSKIPALAVEMPGSADISGLNLQFGALQFGSEPVLSDYESTPTTSASSSQAPSSLYTSTASESSSTVSSNQSQESGYQSGPIQSTTYTSQNNAQGPLYEQRSTQTRRYPSSISSSPQKDLTQAKNGFSSVQATQLQTTQSVEGATGSAVKSESPSTSSIPSLNETVPAASLLTTANQHSSSLSGLSHTEEIPNTTTTQHSSALSTQQNTLSSSTSSGRTSTSTLLHTSVESEANLHSSSSTFSTTSSTVSAPPPVVSVSSSLNSGSSLGLSLGSNSTVTASTRSSVATTSGKAPPNLPPGVPPLLPNPYIMAPGLLHAYPPQVYGYDDLQMLQTRFPLDYYSIPFPTPTTPLTGRDGSLASNPYSGDLTKFGRGDASSPAPATTLAQPQQNQTQTHHTTQQTFLNPALPPGYSYTSLPYYTGVPGLPSTFQYGPAVFPVAPTSSKQHGVNVSVNASATPFQQPSGYGSHGYNTGVSVTSSNTGVPDISGSVYSKTQQSFEKQGFHSGTPAASFNLPSALGSGGPINPATAAAYPPAPFMHILTPHQQPHSQILHHHLQQDGQTGSGQRSQTSSIPQKPQTNKSAYNSYSWGAN
binds | ZNF281 (mouse) (protein, UniProt Q99LI5 1-893) MKIGSGFLSGGGGPSSSGGSGSGGSSGSASGGSGGGRRAEMEPTFPQSMVMFNHRLPPVTSFTRPAGTAAPPPQCVLSSSTSAAPAAEPPPPPAPDMTFKKEPAASAAAFPSQRTSWGFLQSLVSIKQEKPADPEEQPSHHHHHHHHYGGLFAGAEERSPGLGGGEGGSHGVIQDLSLLHQHAQQQPAQHHRDVLLSSGSRTDEHGNQEPKQDANVKKAKRPKPESQGIKAKRKPSASSKPLVGEGEGAVLSPSQKPHICDHCSAAFRSSYHLRRHVLIHTGERPFQCSQCSMGFIQKYLLQRHEKIHSREKPFGCDQCSMKFIQKYHMERHKRTHSGEKPYKCDTCQQYFSRTDRLLKHRRTCGEAIAKGAASAEPGSSNHNSMGNLAVLSQGNTSSSRRKSKSKSIAIENKEHKTGKTNESQMSNNINMQSYSVEMPTVSTSGSIIGTGIDELQKRVPKLIFKKGSRKNADKSYLNFVSPLPDVVGQKSLSGKPGGSLGIVSNNSVETISLLQSTSGKQGPISSNYDDAMQFSKKRRYLPTASSNSAFSINVGHMVSQQSVIQSAGVSVLDNEAPLSLIDSSALNAEIKSCHDKSGIPDEVLQSILDQYSGKSETQKEDPFNLTEPRVDLHTSGEHSELVQEENLSPGTQTPSNDKTSMLQEYSKYLQQAFEKSTNAGFTLGHGFQFVSLSSPLHNHTLFPEKQIYTTSPLECGFGQSVTSVLPSSLPKPPFGMLFGSQPGLYLSALDATHQQLTPSQELDDLIDSQKNLETSSAFQSSSQKLTSQKEQQKNLESSTSFQIPSQELASQIDPQKDIEPRTTYQIENFAQAFGSQFKSGSRVPMTFITNSNGEVDHRVRTSVSDFSGYTNMMSDVSEPCSTRVKTPTSQSYR
